Reference: patent publication US7651661B2, “Medical devices with broad spectrum antimicrobial activity” (Board of Regents, the University of Texas System, priority 2001, dated 2010)
At least one compound was matched to its structure with a doubt left.

Legend:
[1] = tested on: C. Parap.1-100-0022 (Candida Parapsilosis); test: Zones of inhibition of impregnated devices, modified Kirby-Bauer technique; format: cell-based
[2] = tested on: MRSA2066 (Methicillin-Resistant Staphylococcus aureus); test: as above; format: cell-based

## CN(C)c1ccc(C(=C2C=CC(=[N+](C)C)C=C2)c2ccc(N(C)C)cc2)cc1.C[O-] [GV^†OCH^3−]
[1]; Silicone catheter (Table 11)
  Zones of Inhibition (in mm) against C. Parap.1-100-0022, Si-catheter: 25:25 mm
[1]; Silk suture (Table 11)
  Zones of Inhibition (in mm) against C. Parap.1-100-0022, Silk Suture: 10:13 mm
[2]; Silicone catheter (Table 11)
  Zones of Inhibition (in mm) against MRSA2066, Si-catheter: 18:19 mm
[2]; Silk suture (Table 11)
  Zones of Inhibition (in mm) against MRSA2066, Silk Suture: 15:15 mm
